# Assay results reported in the supplement of paper PMC10338343.
# ± gives the standard deviation. The list shows a part of the results, in another mix than the full data. Many entries were measured with a wide error. This is one part of the list.
# What was measured:
# [1] = system: MIWI (PIWIL1) piRISC loaded with L1MC piRNA (30 nt); test: pre-steady-state target cleavage rate (min^-1); higher = faster piRNA-guided slicing of the target; settings: guide: L1MC piRNA 5'p-UAACUAAAUACUAUGCAAGCUGUAGGUCCU;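 also: 1 nM active piRISC with 0.1 nM target library at 33 °C single turnover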
# Method in brief: (§1)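 A transcribed, DNA-blocked target RNA library […] was incubated at 33 °C for 0–8 or 0–960 min with 1 nM active affinity-purified piRISC carrying one synthetic guide, in HEPES–potassium acetate buffer with or without 500 nM GTSF1 partner protein. Uncleaved targets were then sequenced and normalised to depth and to weakly complementary targets. Data from three trials were pooled, with k3 capped at 0.0001 min^-1, and a burst-and-steady-state fit yielded the pre-steady-state cleavage rate.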
# [2] = system: EfPiwi piRISC loaded with L1MC piRNA (26 nt); test: pre-steady-state target cleavage rate (min^-1); guide: L1MC piRNA 5'p-UAACUAAAUACUAUGCAAGCUGUAGG; MIWI and MILI are mouse PIWI proteins and EfPiwi is from a freshwater sponge; tags in brackets are library labels; higher = faster piRNA-guided slicing of the target
# Method in brief: as §1
# [3] = auxiliary factor: none (no GTSF1)
# [4] = auxiliary factor: 500 nM Ephydatia muelleri Gtsf1
# [5] = auxiliary factor: none (no Gtsf1)
# [6] = auxiliary factor: 500 nM mouse GTSF1
Sequence,"pre-steady-state target cleavage rate [1, 3]","pre-steady-state target cleavage rate [2, 4]","pre-steady-state target cleavage rate [2, 5]","pre-steady-state target cleavage rate [1, 6]"
UCCUGCUACAGCUACCAUAGUAUUUAGAAA,0.000353 ± 0.012,0.00153 ± 0.0029,,
UCCUGGAUGUCGAUGUCAUAGUAUUUAGUUA,0.00104 ± 0.0068,,0.00044 ± 0.018,
UCCUGGAUGUGCAUGCAUAGUAUAUAGUUA,0.00236 ± 0.004,0.000432 ± 0.011,,
UCCUGGAUGUGCAAGCAUAGUAUUUAGUUA,0.00255 ± 0.0035,0.00427 ± 0.0022,,
UCCUGGUACAGCUUGCAUAGAUAUUUAGUUA,0.00142 ± 0.0069,0.00235 ± 0.004,,
UCCUGGAUGUCCUUGCAUUGUAUUUUGUUA,0.00159 ± 0.005,0.00179 ± 0.0066,,
UCCUGGAACAGCAAGCAUAGUAUUUAGAAA,0.000915 ± 0.0045,0.00309 ± 0.002,,
UCCUGGAUGUCGAACGUAUCUAUUUUCUUA,,< 0.0001,,0.000332 ± 0.013
UCCUGGAUGUCGAACCAUAGCUAUUUAGUUA,0.000228 ± 0.025,< 0.0001,,
UCCUGGAUGUCCUUGGAUACUAUUUAGUUA,0.000823 ± 0.0097,0.000195 ± 0.019,,
UCCUGGAUGUGCUUGCAUAGUAUUUAGGUA,0.0113 ± 0.0031,0.00137 ± 0.0053,,0.0938 ± 0.016
UCCUGGAUGUCCUUGCAUAGUUAUUUAGUUA,0.00177 ± 0.0053,0.00169 ± 0.0048,,0.00343 ± 0.0047
UCCUGGAUGUCGAACGUAUCUAUUUAUUUA,0.000211 ± 0.019,,< 0.0001,0.000132 ± 0.036
UCCUGGAACAGCUUGGUAAGUAUUUAGUAA,0.00133 ± 0.004,0.00033 ± 0.01,,0.0019 ± 0.0053
UCCUGGAUGAGCUUGCAUAGUAUUUAGUAUA,0.0165 ± 0.0055,0.00301 ± 0.0034,,0.702 ± 0.054
UCCUGGAUGUCGUUGCAUACGUAUUUAGUUA,0.000736 ± 0.012,0.000258 ± 0.02,,0.000179 ± 0.051
UCCUGGAUGUCCUUGCAUUGUAAUUAGUUA,0.00107 ± 0.0079,0.00164 ± 0.0044,,0.00155 ± 0.0073
UCCUGGAACAGCUUGGAUAGUAUUUUGUUA,0.0289 ± 0.0047,,0.000459 ± 0.025,0.745 ± 0.075
UCCUGGAUGUCGAUGCAUAGUCUUUAGUUA,0.00206 ± 0.0049,0.00301 ± 0.0034,,0.00279 ± 0.0041
UCCUGGUACAGCUUGCAUACAUUUUAGUUA,0.000631 ± 0.0086,0.000321 ± 0.017,,0.00353 ± 0.0048
UCCUGGUUCAGCUUGCAUAGUAUUUACUUA,0.0237 ± 0.0048,0.0025 ± 0.0031,,0.18 ± 0.041
UCCUGCAACAGCUUGGAUAGUAUUUAGUUA,0.0688 ± 0.012,0.0256 ± 0.0066,,1.24 ± 0.1
UCCUGGAUGUCCUUGCUUUGUAUUUAGUUA,0.00177 ± 0.0048,0.000814 ± 0.0066,,0.00339 ± 0.0037
UCCUGGAUGUGCUAGCAUAGAAUUUAGUUA,0.00207 ± 0.0038,0.000236 ± 0.023,,0.00695 ± 0.0028

Sequence,"pre-steady-state target cleavage rate [1, 3]","pre-steady-state target cleavage rate [2, 4]","pre-steady-state target cleavage rate [2, 5]","pre-steady-state target cleavage rate [1, 6]"
UCCUGGAUCAGCUUGCAUAGUAUUUAGUUUA,0.0415 ± 0.011,0.0394 ± 0.011,,1.64 ± 0.071
UCCUGGAUGUCGUUGCAAAGUAUUUAGUAA,0.000598 ± 0.0079,0.00124 ± 0.0049,,0.000693 ± 0.013
UCCUGGAUGUCCUUGCAUUGUUUUUAGUUA,0.00177 ± 0.0044,0.000282 ± 0.01,,0.00283 ± 0.0053
UCCUCCUACAGCUUGCUUAGUAUAUAGUUA,0.0104 ± 0.0032,0.0127 ± 0.0069,,0.617 ± 0.034
UCCUCCUACAGCUUGCGUAGUAUUUAGUUA,0.0225 ± 0.0064,0.031 ± 0.011,,1.55 ± 0.078
UCCUGCUACAGCUUGCUUAGUAUUAAGUUA,0.00887 ± 0.0026,0.00988 ± 0.0037,,0.403 ± 0.038
UCCUGGAUCAGGAAGCAUAGUAUUUAGUAA,0.00178 ± 0.0025,0.000398 ± 0.0095,,0.00326 ± 0.0045
UCCUGCUACAGCAUGCAUAGUAAUUAGUUA,0.00723 ± 0.0026,0.007 ± 0.0024,,0.73 ± 0.077
UCCUGGAUGUCGAUGCAUAUUAUUUAGUUA,0.00112 ± 0.0058,0.0047 ± 0.0036,,0.00245 ± 0.0044
UCCUGGAUGUCGAUGCAUAGUGAUUUAGUUA,0.00175 ± 0.005,0.000929 ± 0.0092,,0.000393 ± 0.026
UCCUGGUACAGCUUGCUUAGUAUUUAGUUA,0.0523 ± 0.011,0.0165 ± 0.0049,,0.79 ± 0.037
UCCUGGAUGAGCUUGCAUAGUAUUUAGUGA,0.0519 ± 0.0094,0.00681 ± 0.0032,,0.703 ± 0.047
UCCUGGAACUGCAUGCAUAGUAUUUAGUUA,0.00687 ± 0.0019,0.0126 ± 0.0039,,0.442 ± 0.035
UCCUGGAUGUCCUUGCAUAGUAUAUUGUUA,0.00202 ± 0.0028,0.000676 ± 0.0042,,0.00947 ± 0.0039
UCCUGGAUGUCCUUGCAUAGUUUUAGUUA,0.00218 ± 0.0026,0.000266 ± 0.012,,0.00196 ± 0.0071
UCCUGGAUGUCGAACGAUACUAUUUAGAUA,0.000144 ± 0.049,,< 0.0001,0.000104 ± 0.018
UCCUCCUACAGCAUGGAUAGUAUUUAGUUA,0.0219 ± 0.0037,0.096 ± 0.023,,1.38 ± 0.067
UCCUGGAUGUCGUUGCAUAGUAUCUUAGUUA,0.00106 ± 0.0074,0.000336 ± 0.018,,0.00169 ± 0.0065
UCCUGGAUGUCGUUGCAUAGUAUUUACAUA,0.000831 ± 0.0077,0.000317 ± 0.0095,,0.000462 ± 0.017
UCCUGGUUGUGCUUGCAUAGUAUUUAGUAA,0.0175 ± 0.0053,0.00401 ± 0.0038,,0.2 ± 0.022
UCCUGGAUGUCGUUGCAUAGUAAUUAGUUA,0.00182 ± 0.0041,0.00243 ± 0.0026,,0.00166 ± 0.0055
UCCUCCUACUGCUUGGAUAGUAUUUAGUUA,0.0517 ± 0.0073,0.064 ± 0.012,,1.21 ± 0.04
UCCUGGAUGAGGUUGCAUAGUAUUUACUUA,0.000695 ± 0.0082,0.000314 ± 0.014,,0.000753 ± 0.013

# A few values from above:
# Value of UCCUGGUACAGCUUGCAUACAUUUUAGUUA under pre-steady-state target cleavage rate [1, 6]: 0.00353 ± 0.0048
# Value of UCCUGGAUGUCGUUGCAUAGUAUCUUAGUUA under pre-steady-state target cleavage rate [1, 6]: 0.00169 ± 0.0065
# Value of UCCUGGAUGUCGAUGUCAUAGUAUUUAGUUA under pre-steady-state target cleavage rate [2, 5]: 0.00044 ± 0.018
# Value of UCCUGGAUGUCCUUGCAUUGUAAUUAGUUA under pre-steady-state target cleavage rate [1, 3]: 0.00107 ± 0.0079
